The nature of the assay: qHTS Assay for Lipid Storage Modulators in Drosophila S3 Cells.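 As to cell number change: cells counted by Cell Tracker Red CMTPX staining in the red channel.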 As to conditions: BODIPY lipid droplet fluorescence, 18-24 h; for cell number change: measured here: cell count max response, cells fed with added oleic acid. In short, it runs like this: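 Drosophila S3 cells got compounds at several concentrations plus oleic acid (400 uM solution). Laser-scanning cytometry with 488 nm excitation read lipid droplets at 500-530 nm and cells at 575-640 nm. Percent activity was relative to 20 uM Triacsin C.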

[1] abbreviates: measured here: lipid fluorescence (Fed channel) AC50, cells fed with added oleic acid.
Setting [2] is: measured here: cell number channel AC50, cells fed with added oleic acid.

Each structure is given as a SMILES string. The list shows a part of the results. Further columns of the screen follow, without active or inactive calls. Most of these compounds were active or inconclusive in the main read-out, so they are no random draw. Potencies come from curve fits of mixed quality, noted in brackets.

In general, AC50 refers to the midpoint of the concentration-response curve, whichever way the signal moves. A lower AC50 goes with activity at low concentration. `CCC(C)NC(=O)c1oc2ccc(S(=O)(=O)N3CCC4(CC3)OCCO4)cc2c1C` (stereo not given): the cell number change was 20.3%. The concentration at half-maximal activity (AC50) under setting [1] was 11.6 µM [rising, single point].

Turning to `CN(CC(=O)NC1CCCCC1)S(=O)(=O)c1ccc(Br)s1`, the AC50 under setting [1] was 0.58 µM [falling, single point].

As to `C(=N/Nc1nc(-c2ccccc2)cc(-c2ccccc2)n1)/c1cccnc1`, the cell number change is -27.8%.

`CN1CCN(c2ccc(-c3ccnn3C(=O)Nc3cccc(C(F)(F)F)c3)cc2)CC1`: the cell number change was -46.1%.

As to `COc1ccc(-c2noc(N3CCC(C(=O)NCCCN4CCCCC4)CC3)n2)cc1`, the cell number change was 4.03%. Also, the AC50 under setting [1] is 29.1 µM [rising, single point].

For `CC(C)[C@H](NC(=O)c1ccccc1)C(=O)OCC(=O)NCCc1ccc(F)cc1`, the cell number change worked out at 10%. The AC50 under setting [1] is 3.26 µM [rising, partial curve, poor fit].

Turning to `CC(C)c1ccc(NC(=O)COC(=O)c2ccc(CN3CCCC3=O)cc2)cc1`, the cell number change is -51.5%. For the same molecule, the AC50 under setting [2] was 0.651 µM [falling, full curve]. Under setting [1], the AC50 was 1.16 µM [falling, full curve].

For the molecule `O=C(NC1CCS(=O)(=O)C1)c1c(NC(=O)C2COc3ccccc3O2)sc2c1CCCC2` (stereo not given), the cell number change is 12.4%. Moreover, the AC50 under setting [1] was 29.1 µM [rising, single point].

On to `Cc1cc(NC(=O)c2cc(Cl)ccc2Cl)no1`, for which the cell number change was 1.3%. The AC50 under setting [1] is 0.206 µM [rising, full curve].

For the molecule `CC(OC(=O)C(NC(=O)c1ccco1)C(C)C)C(=O)Nc1ncc(Cl)cc1Cl` (stereo not given), the cell number change was -13.2%. For the same molecule, under setting [1], the AC50 is 29.1 µM [falling, single point].

In the case of `O=C(NNC(=O)c1c(O)c2ccccc2[nH]c1=O)c1ccccc1`, the cell number change stood at 5.56%. In addition, under setting [1], the AC50 is 8.2 µM [rising, partial curve].

On to `O=C(c1cc(=O)c2ccccc2o1)N1CCCc2ccccc21`, for which the cell number change worked out at 17.9%. Further, under setting [1], the AC50 is 3.66 µM [rising, partial curve].

On to `Cc1ccc(C(=O)N2CCN(c3ccc(NC(=O)c4cccnc4Cl)cc3)CC2)cc1`, for which the cell number change is -3.36%.

`COc1cc(C(=O)/C=C/Nc2ccc(NC(C)=O)cc2)cc(OC)c1OC`: the cell number change came to 12.2%. Besides, under setting [2], the AC50 was 6.51 µM [rising, single point].

As to `CC(C)(C)c1ccc(C2C3=C(CCCC3=O)NC3=C2C(=O)c2ccccc23)cc1` (stereo not given), the cell number change is -19.7%. Also, under setting [1], the AC50 is 32.6 µM [falling, single point].

With `Cc1oc(-c2nc3ccccc3n2C)cc1C(=O)c1ccccc1`, the cell number change is -28.8%. Moreover, the AC50 under setting [1] was 13 µM [falling, single point].

Consider `CCC1(C)Cc2c(sc3nc(SC)nc(N)c23)CO1` (stereo not given), for which the cell number change stood at 68.3%. Further, the AC50 under setting [2] is 18.4 µM [rising, single point]. Moreover, the AC50 under setting [1] is 23.1 µM [rising, single point].

Take `COc1ccc(-c2cc(C(=O)Nc3cccc(C(C)=O)c3)no2)cc1`: the cell number change was -6.94%. Also, the AC50 under setting [1] is 0.92 µM [rising, single point].

Take `Cc1ccc(N2CC(C(=O)N3CCC(C(=O)Nc4ccc(Br)cc4)CC3)CC2=O)cc1` (stereo not given): the cell number change was -3.81%.

Regarding `Nc1nc(-c2ccco2)c(-c2ccco2)s1`, the cell number change is -13.9%.

`Cc1nc(NS(=O)(=O)c2ccccc2)sc1C(=O)N/N=C/c1ccccc1`: the cell number change came to 16.1%. For the same molecule, the AC50 under setting [2] is 1.3 µM [falling, partial curve, poor fit]. For the same molecule, the AC50 under setting [1] was 1.3 µM [falling, partial curve].

Consider `CN(CC(=O)NCc1ccccn1)S(=O)(=O)c1ccc(Cl)cc1`, for which the cell number change turned out to be 10.5%.

Regarding `COC(=O)c1sccc1NC(=O)CSc1ccccc1NS(=O)(=O)c1ccccc1Cl`, the cell number change is 25.6%. Moreover, the AC50 under setting [2] is 0.291 µM [rising, full curve, poor fit]. Also, under setting [1], the AC50 was 3.66 µM [rising, full curve].

In the case of `COc1cccc(C(=O)Nc2ccncc2)c1OC`, the cell number change was -8.5%. For the same molecule, the AC50 under setting [1] was 29.1 µM [falling, single point].

As for `O=C(N/N=C/c1ccc(Br)o1)c1cc([N+](=O)[O-])cc([N+](=O)[O-])c1`, the cell number change was determined as 9.19%. Besides, the AC50 under setting [2] was 0.00461 µM [rising, full curve, poor fit]. For the same molecule, the half-maximal activity concentration (AC50) under setting [1] was 0.00461 µM [rising, full curve, poor fit].

In the case of `Nc1ccc(Cc2ccc(N)c(C(=O)O)c2)cc1C(=O)O`, the cell number change worked out at 35.6%. Moreover, the AC50 under setting [2] was 0.0103 µM [rising, full curve, poor fit].

Turning to `CCC(=O)Nc1ccc(C(=O)OCC(=O)c2ccc(C)c([N+](=O)[O-])c2)cc1`, the cell number change is -34.7%. Besides, under setting [2], the AC50 was 29.1 µM [falling, single point]. Besides, the AC50 under setting [1] is 29.1 µM [falling, single point].

In the case of `CCN(CC)C(=O)C1CCCN(c2ncnc3c2cnn3-c2ccc(Cl)cc2)C1` (stereo not given), the cell number change was -6.59%.

Consider `CC1CCc2cc(F)ccc2N1C(=O)c1cccs1` (stereo not given), for which the cell number change was 4.65%. In addition, the AC50 under setting [1] is 6.51 µM [falling, single point].

In the case of `Cc1ccc(/C=C2/SC(=S)N(CC(=O)Nc3ncc(Cc4ccc(C)cc4)s3)C2=O)cc1`, the cell number change was -5.71%. In addition, under setting [2], the AC50 was 0.651 µM [falling, full curve, poor fit]. Also, the AC50 under setting [1] is 0.146 µM [falling, partial curve].

With `COc1ccc(-c2nnc(SCCc3ccccc3)n2N)cc1`, the AC50 under setting [2] is 6.51 µM [rising, single point] and the concentration at half-maximal activity (AC50) under setting [1] is 6.51 µM [rising, single point].

As for `Cc1cc(Nc2ncc(Cl)cc2Cl)n[nH]1`, the cell number change stood at 25.5%. Further, under setting [1], the AC50 was 0.651 µM [rising, single point].

Consider `CCOc1cccc2sc(NC(=O)CCS(=O)(=O)c3ccccc3)nc12`, for which the cell number change is -12.8%. In addition, the AC50 under setting [1] is 8.91 µM [falling, partial curve].

Take `Cc1ccc(S(=O)(=O)N2CCCCC2CCNC(=O)C(=O)NCc2ccncc2)cc1` (stereo not given): the cell number change was -29.2%. The concentration at half-maximal activity (AC50) under setting [1] was 4.61 µM [falling, full curve, poor fit].

Turning to `CCC(Sc1nc2ccncc2[nH]1)C(=O)Nc1ccc(C)c(Cl)c1` (stereo not given), the cell number change was determined as 11.7%. Also, the AC50 under setting [1] was 29.1 µM [falling, single point].

As to `COc1cccc(N(CC(=O)NC2CC3CCC2C3)S(=O)(=O)c2ccccc2)c1` (stereo not given), the cell number change is 2.86%.

With `Clc1cnc(Nc2cccnc2)c(Cl)c1`, the AC50 under setting [1] was 29.1 µM [rising, partial curve, poor fit].

With `CCC/C(=N\NC(=O)C1CCCC1)c1ccccc1`, the cell number change was -10.9%. Moreover, under setting [1], the AC50 was 29.1 µM [rising, single point].

Take `COc1ccc(N2CCN(C(=O)c3c(C)nn(-c4ccccc4)c3C)CC2)cc1`: the AC50 by setting is: under setting [2], 0.116 µM [falling, full curve, poor fit]; under setting [1], 29.1 µM [rising, single point].

Source of the values: PubChem BioAssay AID2685 (National Center for Advancing Translational Sciences (NCATS), 2010).
